No constants are given. Whether binding was seen depends on the method and setting. Some entries that bind do so weakly or less than the wild type.
T1: Pub1 RRM3 (S. cerevisiae) (UniProt P32588)
T1 sequence: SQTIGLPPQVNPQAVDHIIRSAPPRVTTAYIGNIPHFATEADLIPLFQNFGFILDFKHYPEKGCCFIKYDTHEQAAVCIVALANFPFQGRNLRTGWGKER

T2: eIF4G1_(1-249) (S. cerevisiae) (UniProt P39935)
T2 sequence: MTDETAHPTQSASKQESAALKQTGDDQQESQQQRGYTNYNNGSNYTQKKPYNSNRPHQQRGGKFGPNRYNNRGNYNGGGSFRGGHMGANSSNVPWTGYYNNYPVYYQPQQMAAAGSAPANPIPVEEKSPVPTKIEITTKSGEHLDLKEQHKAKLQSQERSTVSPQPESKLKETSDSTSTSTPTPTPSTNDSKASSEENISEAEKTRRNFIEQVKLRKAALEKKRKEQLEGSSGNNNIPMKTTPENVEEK


Experiments:
[1] = target: T1, Pub1 RRM3 (S. cerevisiae); experiment: NMR structure
[2] = target: T1, Pub1 RRM3 (S. cerevisiae); experiment: NMR titration
[3] = target: T1, Pub1 RRM3 (S. cerevisiae); experiment: NMR titration; remark: listed apart in the source
[4] = target: T2, eIF4G1_(1-249) (S. cerevisiae); experiment: NMR titration

Binder | binding [2] | also measured
GYTNYNNGSNYTQKK (peptide, UniProt P39935 35-49) [eIF4G1_(35-49)] | – | binding [1]: binds weakly
eIF4G1_(1-82) (domain or fragment, UniProt P39935 1-82) MTDETAHPTQSASKQESAALKQTGDDQQESQQQRGYTNYNNGSNYTQKKPYNSNRPHQQRGGKFGPNRYNNRGNYNGGGSFR | binds weakly | –
eIF4G1_(1-305) (domain or fragment, UniProt P39935 1-305) MTDETAHPTQSASKQESAALKQTGDDQQESQQQRGYTNYNNGSNYTQKKPYNSNRPHQQRGGKFGPNRYNNRGNYNGGGSFRGGHMGANSSNVPWTGYYNNYPVYYQPQQMAAAGSAPANPIPVEEKSPVPTKIEITTKSGEHLDLKEQHKAKLQSQERSTVSPQPESKLKETSDSTSTSTPTPTPSTNDSKASSEENISEAEKTRRNFIEQVKLRKAALEKKRKEQLEGSSGNNNIPMKTTPENVEEKGSDKPEVTEKTKPAEEKSAEPEVKQETPAEEGEQGEKGQIKEESTPKVLTFAERLK | binds weakly | –
eIF4G1_(1-348) (domain or fragment, UniProt P39935 1-348) MTDETAHPTQSASKQESAALKQTGDDQQESQQQRGYTNYNNGSNYTQKKPYNSNRPHQQRGGKFGPNRYNNRGNYNGGGSFRGGHMGANSSNVPWTGYYNNYPVYYQPQQMAAAGSAPANPIPVEEKSPVPTKIEITTKSGEHLDLKEQHKAKLQSQERSTVSPQPESKLKETSDSTSTSTPTPTPSTNDSKASSEENISEAEKTRRNFIEQVKLRKAALEKKRKEQLEGSSGNNNIPMKTTPENVEEKGSDKPEVTEKTKPAEEKSAEPEVKQETPAEEGEQGEKGQIKEESTPKVLTFAERLKLKKQQKEREEKTEGKENKEVPVQEETKSAIESAPVPPSEQVKE | binds weakly | –
eIF4G1_(1-402) (domain or fragment, UniProt P39935 1-402) MTDETAHPTQSASKQESAALKQTGDDQQESQQQRGYTNYNNGSNYTQKKPYNSNRPHQQRGGKFGPNRYNNRGNYNGGGSFRGGHMGANSSNVPWTGYYNNYPVYYQPQQMAAAGSAPANPIPVEEKSPVPTKIEITTKSGEHLDLKEQHKAKLQSQERSTVSPQPESKLKETSDSTSTSTPTPTPSTNDSKASSEENISEAEKTRRNFIEQVKLRKAALEKKRKEQLEGSSGNNNIPMKTTPENVEEKGSDKPEVTEKTKPAEEKSAEPEVKQETPAEEGEQGEKGQIKEESTPKVLTFAERLKLKKQQKEREEKTEGKENKEVPVQEETKSAIESAPVPPSEQVKEETEVAETEQSNIDESATTPAIPTKSDEAEAEVEAEAGDAGTKIGLEAEIETTTD | binds weakly | –
eIF4G1_(1-249) (domain or fragment, UniProt P39935 1-249) MTDETAHPTQSASKQESAALKQTGDDQQESQQQRGYTNYNNGSNYTQKKPYNSNRPHQQRGGKFGPNRYNNRGNYNGGGSFRGGHMGANSSNVPWTGYYNNYPVYYQPQQMAAAGSAPANPIPVEEKSPVPTKIEITTKSGEHLDLKEQHKAKLQSQERSTVSPQPESKLKETSDSTSTSTPTPTPSTNDSKASSEENISEAEKTRRNFIEQVKLRKAALEKKRKEQLEGSSGNNNIPMKTTPENVEEK | binds weakly | binding [3]: binds
eIF4G1_(1-184) (domain or fragment, UniProt P39935 1-184) MTDETAHPTQSASKQESAALKQTGDDQQESQQQRGYTNYNNGSNYTQKKPYNSNRPHQQRGGKFGPNRYNNRGNYNGGGSFRGGHMGANSSNVPWTGYYNNYPVYYQPQQMAAAGSAPANPIPVEEKSPVPTKIEITTKSGEHLDLKEQHKAKLQSQERSTVSPQPESKLKETSDSTSTSTPTP | binds | –
eIF4G1_(1-184) W95A (domain or fragment, UniProt P39935 1-184) MTDETAHPTQSASKQESAALKQTGDDQQESQQQRGYTNYNNGSNYTQKKPYNSNRPHQQRGGKFGPNRYNNRGNYNGGGSFRGGHMGANSSNVPATGYYNNYPVYYQPQQMAAAGSAPANPIPVEEKSPVPTKIEITTKSGEHLDLKEQHKAKLQSQERSTVSPQPESKLKETSDSTSTSTPTP | binds weakly | –
eIF4G1_(1-184) Y98A/Y99A (domain or fragment, UniProt P39935 1-184) MTDETAHPTQSASKQESAALKQTGDDQQESQQQRGYTNYNNGSNYTQKKPYNSNRPHQQRGGKFGPNRYNNRGNYNGGGSFRGGHMGANSSNVPWTGAANNYPVYYQPQQMAAAGSAPANPIPVEEKSPVPTKIEITTKSGEHLDLKEQHKAKLQSQERSTVSPQPESKLKETSDSTSTSTPTP | binds weakly | –
eIF4G1_(1-184) Y105A/Y106A (domain or fragment, UniProt P39935 1-184) MTDETAHPTQSASKQESAALKQTGDDQQESQQQRGYTNYNNGSNYTQKKPYNSNRPHQQRGGKFGPNRYNNRGNYNGGGSFRGGHMGANSSNVPWTGYYNNYPVAAQPQQMAAAGSAPANPIPVEEKSPVPTKIEITTKSGEHLDLKEQHKAKLQSQERSTVSPQPESKLKETSDSTSTSTPTP | binds weakly | –
Pub1 RRM3 (domain or fragment, UniProt P32588 315-414) SQTIGLPPQVNPQAVDHIIRSAPPRVTTAYIGNIPHFATEADLIPLFQNFGFILDFKHYPEKGCCFIKYDTHEQAAVCIVALANFPFQGRNLRTGWGKER | – | binding [4]: binds weakly
STNDSKASSEENISEAEKTRRNFIEQVKLRKAALEKKRKEQLEGSSGN (peptide, UniProt P39935 187-234) [eIF4G1 BOX3 peptide (eIF4G1_(187-234))] | no binding | –

Reference: publication doi:10.1101/2020.08.07.234443
